Assay results as given in the supplement of paper PMC6078165.
± gives the standard deviation of the averaged measurements. The reference is the same well before dosing, and untreated signal decays as well.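 Labels refer to human fibroblasts, largely primary: uterine (C12385, HUF), lung (H6013), bone (Hs27A), adrenal (HADF), skin (WS1), plus mammary HMF and breast cancer-associated Hs343T. Cancer lines are basal-like or mesenchymal-like triple-negative breast cancer. The paper counts as hits responses shifting over 3x the replicate standard deviation. The tissue of the other fibroblasts is not given here.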

Test system: BT20
Assay: relative JC-1 red fluorescence (viability) vs pre-drug, coculture with fibroblast (fraction); higher = more viable cancer cells
Protocol: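 JC-1 labelled TNBC cells cocultured 1:1 (1,500 cells each) with CellTrace Violet stained primary or stromal fibroblasts in 384-well plates in FluoroBrite medium, treated with one of 42 anticancer drugs at 0.1, 1, 10 or 100 uM. JC-1 red fluorescence (mitochondrial integrity in cancer cells only) was read by plate reader every 8 h for 72 h. Values are normalised to each well's pre-drug value. The stock of one drug was tenfold lower, so its dose labels may be too high.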

CC(=O)O[C@H]1C(=O)[C@@]2(C)[C@H]([C@H](OC(=O)c3ccccc3)[C@]3(O)C[C@H](OC(=O)[C@H](O)[C@@H](NC(=O)c4ccccc4)c4ccccc4)C(C)=C1C3(C)C)[C@]1(OC(C)=O)CO[C@@H]1C[C@@H]2O [Paclitaxel]
relative JC-1 red fluorescence
Conditions | 8 h | 16 h | 24 h | 32 h | 40 h | 48 h | 56 h | 64 h | 72 h
0.1 µM, coculture fibroblast: C12385 | 0.94 ± 0.043 | 0.842 ± 0.06 | 0.809 ± 0.061 | 0.747 ± 0.063 | 0.687 ± 0.044 | 0.668 ± 0.038 | 0.64 ± 0.043 | 0.638 ± 0.036 | 0.65 ± 0.035
0.1 µM, coculture fibroblast: H6013 | 0.898 ± 0.13 | 0.92 ± 0.021 | 0.91 ± 0.027 | 0.887 ± 0.029 | 0.848 ± 0.032 | 0.832 ± 0.04 | 0.818 ± 0.046 | 0.808 ± 0.039 | 0.804 ± 0.045
0.1 µM, coculture fibroblast: H6019 | 0.861 ± 0.018 | 0.768 ± 0.012 | 0.7382 ± 0.003 | 0.68 ± 0.016 | 0.64 ± 0.034 | 0.613 ± 0.038 | 0.567 ± 0.058 | 0.535 ± 0.059 | 0.518 ± 0.054
0.1 µM, coculture fibroblast: H6076 | 0.943 ± 0.038 | 0.875 ± 0.01 | 0.7883 ± 0.0014 | 0.7558 ± 0.0021 | 0.722 ± 0.019 | 0.708 ± 0.025 | 0.717 ± 0.027 | 0.727 ± 0.027 | 0.724 ± 0.024
0.1 µM, coculture fibroblast: H6231 | 0.848 ± 0.048 | 0.938 ± 0.033 | 0.754 ± 0.027 | 0.658 ± 0.019 | 0.584 ± 0.016 | 0.517 ± 0.0094 | 0.465 ± 0.0092 | 0.445 ± 0.012 | 0.422 ± 0.018
0.1 µM, coculture fibroblast: HADF | 0.843 ± 0.13 | 0.904 ± 0.011 | 0.81 ± 0.034 | 0.754 ± 0.026 | 0.682 ± 0.03 | 0.627 ± 0.04 | 0.607 ± 0.039 | 0.574 ± 0.028 | 0.545 ± 0.026
0.1 µM, coculture fibroblast: HCFa | 0.93 ± 0.033 | 0.797 ± 0.012 | 0.734 ± 0.031 | 0.668 ± 0.044 | 0.596 ± 0.05 | 0.552 ± 0.063 | 0.503 ± 0.065 | 0.474 ± 0.072 | 0.435 ± 0.061
0.1 µM, coculture fibroblast: HCPF | 0.807 ± 0.085 | 0.93 ± 0.021 | 0.802 ± 0.047 | 0.745 ± 0.029 | 0.697 ± 0.021 | 0.656 ± 0.027 | 0.601 ± 0.024 | 0.613 ± 0.032 | 0.58 ± 0.031
0.1 µM, coculture fibroblast: HHSteC | 0.9582 ± 0.0072 | 0.8503 ± 0.0025 | 0.832 ± 0.012 | 0.744 ± 0.018 | 0.688 ± 0.013 | 0.668 ± 0.02 | 0.634 ± 0.019 | 0.602 ± 0.023 | 0.571 ± 0.02
0.1 µM, coculture fibroblast: HMF | 0.971 ± 0.013 | 0.861 ± 0.014 | 0.755 ± 0.02 | 0.685 ± 0.015 | 0.617 ± 0.0086 | 0.557 ± 0.0078 | 0.531 ± 0.0057 | 0.515 ± 0.011 | 0.5007 ± 0.0018
0.1 µM, coculture fibroblast: HPFa | 0.976 ± 0.024 | 0.941 ± 0.024 | 0.966 ± 0.02 | 0.884 ± 0.031 | 0.874 ± 0.03 | 0.835 ± 0.045 | 0.829 ± 0.023 | 0.82 ± 0.032 | 0.788 ± 0.034
0.1 µM, coculture fibroblast: HUF | 0.914 ± 0.02 | 0.796 ± 0.0092 | 0.7211 ± 0.0065 | 0.6258 ± 0.0033 | 0.566 ± 0.02 | 0.51 ± 0.044 | 0.461 ± 0.074 | 0.424 ± 0.1 | 0.403 ± 0.11
0.1 µM, coculture fibroblast: Hs5 | 0.959 ± 0.015 | 0.906 ± 0.036 | 0.846 ± 0.033 | 0.805 ± 0.036 | 0.766 ± 0.021 | 0.728 ± 0.011 | 0.714 ± 0.015 | 0.687 ± 0.028 | 0.675 ± 0.033
0.1 µM, coculture fibroblast: Hs27A | 0.706 ± 0.0084 | 0.86 ± 0.15 | 0.885 ± 0.0095 | 0.8426 ± 0.0028 | 0.821 ± 0.015 | 0.819 ± 0.038 | 0.824 ± 0.034 | 0.808 ± 0.016 | 0.7884 ± 0.0059
0.1 µM, coculture fibroblast: Hs343T | 0.962 ± 0.012 | 0.825 ± 0.0093 | 0.736 ± 0.0094 | 0.681 ± 0.014 | 0.607 ± 0.0091 | 0.5372 ± 0.0011 | 0.489 ± 0.011 | 0.478 ± 0.014 | 0.452 ± 0.0068
0.1 µM, coculture fibroblast: WS1 | 0.8916 ± 0.0055 | 0.7836 ± 0.0076 | 0.735 ± 0.011 | 0.662 ± 0.017 | 0.584 ± 0.021 | 0.552 ± 0.016 | 0.5004 ± 0.0006 | 0.479 ± 0.0091 | 0.4778 ± 0.0024
1 µM, coculture fibroblast: C12385 | 0.898 ± 0.0073 | 0.819 ± 0.021 | 0.771 ± 0.017 | 0.72 ± 0.016 | 0.667 ± 0.037 | – | – | – | –
1 µM, coculture fibroblast: H6013 | 0.892 ± 0.14 | 0.909 ± 0.053 | 0.834 ± 0.032 | 0.751 ± 0.023 | 0.809 ± 0.11 | – | – | – | –
1 µM, coculture fibroblast: H6019 | 0.877 ± 0.021 | 0.7948 ± 0.00095 | 0.814 ± 0.025 | 0.752 ± 0.036 | 0.713 ± 0.036 | – | – | – | –
1 µM, coculture fibroblast: H6076 | 0.97 ± 0.017 | 0.888 ± 0.019 | 0.818 ± 0.009 | 0.7839 ± 0.0049 | 0.756 ± 0.0035 | – | – | – | –
1 µM, coculture fibroblast: H6231 | 0.884 ± 0.049 | 0.896 ± 0.023 | 0.765 ± 0.069 | 0.684 ± 0.061 | 0.602 ± 0.054 | – | – | – | –
1 µM, coculture fibroblast: HADF | 0.9947 ± 0.0039 | 0.857 ± 0.0095 | 0.813 ± 0.015 | 0.755 ± 0.024 | 0.723 ± 0.03 | – | – | – | –
1 µM, coculture fibroblast: HCFa | 0.934 ± 0.019 | 0.84 ± 0.0099 | 0.805 ± 0.004 | 0.7324 ± 0.005 | 0.669 ± 0.033 | – | – | – | –
1 µM, coculture fibroblast: HCPF | 0.948 ± 0.031 | 0.819 ± 0.015 | 0.754 ± 0.019 | 0.7007 ± 0.00089 | 0.643 ± 0.02 | – | – | – | –
1 µM, coculture fibroblast: HHSteC | 0.9147 ± 0.0086 | 0.8735 ± 0.00024 | 0.9136 ± 0.0091 | 0.819 ± 0.02 | – | – | – | – | –
1 µM, coculture fibroblast: HMF | 0.966 ± 0.028 | 0.836 ± 0.0011 | 0.76 ± 0.033 | 0.688 ± 0.014 | – | – | – | – | –
1 µM, coculture fibroblast: HPFa | 0.963 ± 0.04 | 0.879 ± 0.048 | 0.886 ± 0.052 | 0.789 ± 0.077 | – | – | – | – | –
1 µM, coculture fibroblast: HUF | 0.91 ± 0.019 | 0.802 ± 0.016 | 0.75 ± 0.021 | 0.6575 ± 0.0037 | – | – | – | – | –
1 µM, coculture fibroblast: Hs5 | 0.946 ± 0.02 | 0.9 ± 0.03 | 0.845 ± 0.022 | 0.792 ± 0.011 | – | – | – | – | –
1 µM, coculture fibroblast: Hs27A | 0.823 ± 0.057 | 0.796 ± 0.14 | 0.95 ± 0.015 | 0.953 ± 0.041 | – | – | – | – | –
1 µM, coculture fibroblast: Hs343T | 0.92 ± 0.063 | 0.857 ± 0.048 | 0.749 ± 0.043 | 0.658 ± 0.026 | – | – | – | – | –
1 µM, coculture fibroblast: WS1 | 0.883 ± 0.013 | 0.767 ± 0.012 | 0.745 ± 0.0035 | 0.671 ± 0.0081 | – | – | – | – | –
